Laboratory results as given in publication PMC3146558 (Cellular and molecular neurobiology, 2011).
Counter-ions that a name gives are not always drawn. Like-named read-outs stand apart in the source and are kept apart here.

Test system: morphine induced cAMP overshoot
Experiment: Inhibition of morphine-induced cAMP overshoot, qHTS of LOPAC library
Format: cell-based

Molecule `C=CCN1CC[C@]23c4c5ccc(O)c4O[C@H]2C(=O)CC[C@@]3(O)[C@H]1C5` [Naloxone hydrochloride] has an IC50 (18 h, read-out: Potency) of 210 nM and an IC50 (read-out: IC50) of 200 nM.
